Experimental data taken from the supplement of paper PMC7824004.
This is one part of the list. The data scatter; read single values as rough.

Each compound was assayed on Candida albicans SN425 (assay: biofilm OD600 B-score; higher = more biofilm (less inhibition)). Settings: 10 µM; assay detail: High-throughput adherence inhibition optical density biofilm assay with C. albicans SN425 in RPMI-1640/MOPS pH 7.0, 384-well plates. ….
Method: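 High-throughput adherence inhibition optical density biofilm assay with C. albicans SN425 in RPMI-1640/MOPS pH 7.0, 384-well plates. Compound (10 µM) was present only during the 90 min adherence step, then washed out, and the biofilm grew 24 h without compound. Biofilm was read as OD600 after removing the media. Scores are the difference from the mean in standard deviations and the plate B-score.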

| Structure (SMILES) | biofilm OD600 B-score |
| --- | --- |
| CS(=O)(=O)Nc1ccccc1C(=O)N1CCCC1 | -0.982 |
| CC(=O)Nc1ccc(Nc2nc(-c3cccs3)cs2)cc1 | -0.703 |
| CSc1cccc(NS(=O)(=O)c2ccc(NC(C)=O)cc2)c1 | 0.107 |
| Cc1ccccc1OCCN1CCCCC1 | 0.362 |
| CN(C)CCN(C)Cc1cccc(Br)c1 | -0.413 |
| Cc1occc1C(=O)NCCCc1ccccc1 | -1.6 |
| Nc1cccc2ccc(N3CCOCC3)nc12 | -0.594 |
| COc1cc(NC(C)=O)c(OC)cc1NC(C)=O | 1.69 |
| COc1ccccc1CNC(=O)COc1cccc(C)c1C | 1.61 |
| CCC(NC(=O)C1C2CCC(C2)C1C(=O)O)c1ccccc1 (stereo not drawn) | -1.52 |
| O=[N+]([O-])c1ccc(N2CCN(Cc3cccnc3)CC2)cc1 | 0.368 |
| CC(C(=O)NN)C1=NC(C)(C)Cc2ccccc21 (stereo not drawn) | -0.0261 |
| COc1cccc(NC(=O)c2ccc(CN3CCOCC3)cc2)c1 | 0.0281 |
| O=C(NCc1cccnc1)c1ccc2ccccc2n1 | 0.174 |
| COc1cccc(C(=O)N2CCC(C(=O)O)CC2)c1 | 2.3 |
| O=[N+]([O-])c1ccccc1CN1CCN(c2ccccn2)CC1 | -1.01 |
| Nc1ccc(S(=O)(=O)Nc2nccs2)cc1 | -0.747 |
| CC(=O)Nc1nc(-c2ccccc2)c(-c2ccccc2)o1 | 0.376 |
| NC(=O)C1CCN(C2CC(=O)N(c3ccccc3Cl)C2=O)CC1 (stereo not drawn) | -0.139 |
| CCOc1ccccc1N1CCN(C(=O)NC2CCCCC2)CC1 | 0.344 |
| COCC(=O)NCCc1ccc(OC)cc1 | 1.11 |
| COc1ccc(NCCNc2ccc(OC)cc2)cc1 | -0.53 |
| Cc1ccc(C(=O)NCCC2=CCCCC2)o1 | -0.289 |

Some values from the list:
CCOc1ccccc1N1CCN(C(=O)NC2CCCCC2)CC1 – biofilm OD600 B-score: 0.344
Cc1occc1C(=O)NCCCc1ccccc1 – biofilm OD600 B-score: -1.6
